Reference: PMC10838660, “Artificial intelligence-powered discovery of small molecules inhibiting CTLA-4 in cancer” (BJC reports, 2024)

System: CD45+ immune cells from MC38 tumors
Assay: Single-cell RNA and TCR sequencing of CD45+ tumor immune cells
Assay type: in vivo, hCTLA-4 mice
From the text: Using another cohort of hCTLA-4 mice inoculated with MC38 cells, we treated animals (n = 5 per group) with ipilimumab, anti-PD-1, anti-PD-1 plus D11, D11 alone, or vehicle in the same dosages as used previously. Some animals’ tumors were collected approximately 10 days after the last treatment dose, whereas for the remaining animals, the tumors were allowed to grow (Supplementary Fig. S7). […] Single-cell suspensions from tumors were sorted to obtain CD45^+ immune cells, which were then subjected to single-cell RNA sequencing (scRNAseq) and TCR sequencing. Next, the immune cell populations were compared across the samples (Fig. 5b, c). […] Another interesting observation from the scRNAseq analysis was that the differential expression of membrane-type 1 matrix metalloproteinase, which is known for its role as a key regulator in cell migration in tissues, was associated with D11 treatment. This finding could lead to a possible new mechanism of action, besides macrophage recruitment, to drive the search for anticancer compounds.
We used the Gini and the 1-Pielou indexes to determine the clonotype distributions and the clonality of the TCR repertoire from the TCR sequencing data. […] CDR3 plays a dominant role in recognizing processed antigen peptides.
Tumors from CTLA-4-humanized MC38 syngeneic mice (n = 3–5 mice) were extracted for single-cell suspension using a gentleMACS Octo Dissociator (Miltenyi Biotec). The cells were stained with antimouse CD45 antibody (PE-Cy7, Clone 30-F11, Cat. 103114, Lot B354212) and sorted with a BD FACSAria II Cell Sorting Flow Cytometer. Library preparation of CD45^+ sorted cells for scRNAseq was performed using a 10X Genomics Chromium Single Cell 5′ Library & Gel Bead Reagent Kit. For TCR sequencing, a Chromium Single Cell V(D)J Enrichment Kit was used. The acquired scRNAseq reads from the 10X Genomics platform were aligned to a reference genome (mm10) using Cell Ranger (V.7.1, 10X Genomics) default parameters. The reads and cells were further filtered with Seurat (V.4.0.3) in R (V.4.1.0). Usually, measurements across datasets cannot be compared because of distinct factors that could influence cellular identities. Such factors, which include the sensitivity and accuracy of the methods used, can cause transcript abundance bias and lead to false negatives. Therefore, we employed an unsupervised strategy to anchor datasets together to facilitate integration and comparison across single-cell-sequenced samples [76]. This method allowed accurate cross-comparisons among samples because only specific subsets of cells with the same molecular features are compared to each other. First, to overcome the batch effect, we used a diagonalized canonical correlation analysis to reduce the dimensionality in the 5 treatment datasets of hCTLA-4 mice. Second, L2-normalization was applied to the canonical correlation vectors used to identify mutual nearest neighbors. Third, anchors (cell pairs) were identified by searching for mutual nearest neighbors in this shared low-dimensional representation. These anchors encode for the cellular relationships across datasets; subsequent integration analyses depend on these relationships. […] The clonality of the TCR repertoire was calculated as a 1-Pielou index value using the formula 1+ ∑(i=1 to n) (pi*ln(pi))/ln(n), where pi is the frequency of clone i for a sample of n unique clones; this metric was normalized to the number of unique clones and ranges from 0 to 1. […]

Q: What does the source list for “ipilimumab: an anti-CTLA-4 antibody, first immune checkpoint blockade therapy to receive FDA approval”?
A: % of total TCRs (top TCR clone no. 1 of the group): 4.8%; % of total TCRs (top TCR clone no. 2 of the group): 1.9%; % of total TCRs (top TCR clone no. 3 of the group): 1.6%; % of total TCRs (top TCR clone no. 4 of the group): 1.3%; % of total TCRs (top TCR clone no. 5 of the group): 0.6%
